Our source for the T/C and survivor count values is PubChem BioAssay AID248 (DTP/NCI, 2004).

The experiment deals with L1210 leukemia ip in BDF1 mice, survival T/C. As to the kind of experiment: NCI In Vivo Anticancer Drug Screen. Data for tumor model L1210 Leukemia (intraperitoneal) in B6D2F1 (BDF1) mice. The settings on record: T/C endpoint: mean survival time, higher T/C = longer survival.
Setting [1] is: dose: 400.0 mg/kg/injection, schedule: Q01DX001 (ip), vehicle: carboxymethylcellulose (CMC).
Setting [2] is: dose: 400.0 mg/kg/injection, schedule: Q01DX009 (ip), vehicle: carboxymethylcellulose (CMC).
Setting [3] is: dose: 400.0 mg/kg/injection, schedule: Q01DX001 (ip), vehicle: saline.
Where [4] appears, read: dose: 400.0 mg/kg/injection, schedule: Q04DX003 (ip), vehicle: saline with Tween-80.
The mark [5] stands for this setting: dose: 400.0 mg/kg/injection, schedule: Q04DX002 (ip), vehicle: saline.
Where [6] appears, read: dose: 400.0 mg/kg/injection, schedule: Q04DX003 (ip), vehicle: Klucel (hydroxypropylcellulose) (HPC).
Setting [7] is: dose: 200.0 mg/kg/injection, schedule: Q01DX009 (ip), vehicle: Klucel (hydroxypropylcellulose) (HPC).
[8] abbreviates: dose: 400.0 mg/kg/injection, schedule: Q01DX009 (ip), vehicle: Klucel (hydroxypropylcellulose) (HPC).

The list is a part of this screen's results and no random one: it gathers tests that were run many times, whatever their T/C, doses with no T/C, and many T/C values between a quarter and a half above the control. Other doses and runs of a compound stand elsewhere. T/C: endpoint of the treated group in % of that of the vehicle group. Some doses have a count of surviving animals in place of a T/C: the source files T/C as zero there, which appears to mark a toxic dose or a test without result, not a measured value. Some doses without a T/C left all or most animals alive at the check, yet need not have been tolerated: survival well below the control is almost never listed, so the zero probably covers shortened survival too. Counts of survivors are from the toxicity check (mostly the fifth day) where no day follows; animals may have died later. Schedules are NCI's codes, taken here to give the interval after Q, in days (D) or hours (H), and the number of doses after X. Some schedule codes hold Z or #, which are not explained here. For survival time, this PubChem deposit counts one and a half times the control or more as active, and values a quarter to a half above the control carry no call in these data; other NCI protocols may use other cut-offs. Some entries were tested several times; the results are listed from low to high. Signs of the kind (2×) stand for listed records that agree.

Take `CCOC(=O)CNC(=O)Oc1ccc2c(C)cc(=O)oc2c1`: the T/C is, setting by setting: (dose: 100.0 mg/kg/injection, schedule: Q01DX001 (ip), vehicle: carboxymethylcellulose (CMC)) 95, 98, 100, 101 % of control; (dose: 200.0 mg/kg/injection, schedule: Q01DX001 (ip), vehicle: carboxymethylcellulose (CMC)) 93, 95, 96, 101 % of control; under setting [1], 97, 103, 104 % of control (2×). Moreover, the survivor count is given as 6 of 6 (dose: 100.0 mg/kg/injection, schedule: Q01DX009 (ip), vehicle: carboxymethylcellulose (CMC)) and 3 of 6 under setting [2].

On to `O=S(=O)(CCN1CCCCC1)c1ccc(F)cc1`, for which, under setting [3], the survivor count is recorded as 0 of 4.

Consider `CC(=O)C1=CC(=O)c2ccccc2C1=O`, for which the survivor count was 0 of 6 (dose: 100.0 mg/kg/injection, schedule: Q01DX001 (ip), vehicle: water); 0 of 6 (dose: 200.0 mg/kg/injection, schedule: Q01DX001 (ip), vehicle: water); 0 of 6 (dose: 400.0 mg/kg/injection, schedule: Q01DX001 (ip), vehicle: water).

As for `CCCCCCCCCCCCN1C(C)=CS/C1=C\C=C\c1scc(C)[n+]1CCCCCCCCCCCC`, for the setting “dose: 3.12 mg/kg/injection, schedule: Q01DX009 (ip), vehicle: saline with Tween-80”, the T/C was 125 % of control. Besides, the survivor count was 5 of 6 (dose: 12.5 mg/kg/injection, schedule: Q01DX009 (ip), vehicle: saline with Tween-80) and 0 of 6 (dose: 25.0 mg/kg/injection, schedule: Q01DX009 (ip), vehicle: saline with Tween-80).

In the case of `O=C(COc1ccc(Cl)cc1)Nc1ccc(Cl)cc1C(=O)c1ccccc1`, the survivor count (dose: 100.0 mg/kg/injection, schedule: Q01DX009 (ip), vehicle: other) is 6 of 6.

With `CN(C)CCSCC(OC(=O)c1ccccc1)c1ccccc1` (stereo not drawn), the survivor count reads like this: (dose: 200.0 mg/kg/injection, schedule: Q04DX003 (ip), vehicle: saline with Tween-80) 4 of 6; under setting [4], 1 of 6.

`CCOC(=O)N1C=Cn2c(cnc2C)C1OC` (stereo not drawn): the survivor count was 6 of 6 (dose: 100.0 mg/kg/injection, schedule: Q01DX009 (ip), vehicle: water) and 2 of 6 (dose: 400.0 mg/kg/injection, schedule: Q01DX009 (ip), vehicle: water).

`[CH3][Pb]([CH3])([CH3])[O]C(=O)C(F)(F)F`: the survivor count (dose: 25.0 mg/kg/injection, schedule: Q04DX002 (ip), vehicle: saline) is recorded as 3 of 3; the survivor count (dose: 50.0 mg/kg/injection, schedule: Q04DX002 (ip), vehicle: saline) is 0 of 3; the survivor count (dose: 100.0 mg/kg/injection, schedule: Q04DX002 (ip), vehicle: saline) is 0 of 3; the survivor count (dose: 200.0 mg/kg/injection, schedule: Q04DX002 (ip), vehicle: saline) is 0 of 3; the survivor count under setting [5] is 0 of 3.

For the compound `c1ccc(CC[P+](c2ccccc2)(c2ccccc2)c2ccccc2)cc1`, the survivor count reads like this: (dose: 6.25 mg/kg/injection, schedule: Q01DX009 (ip), vehicle: Klucel (hydroxypropylcellulose) (HPC)) 3 of 6; (dose: 12.5 mg/kg/injection, schedule: Q01DX009 (ip), vehicle: Klucel (hydroxypropylcellulose) (HPC)) 1 of 6; (dose: 25.0 mg/kg/injection, schedule: Q01DX009 (ip), vehicle: Klucel (hydroxypropylcellulose) (HPC)) 1 of 6; (dose: 50.0 mg/kg/injection, schedule: Q04DX003 (ip), vehicle: Klucel (hydroxypropylcellulose) (HPC)) 0 of 6; (dose: 100.0 mg/kg/injection, schedule: Q04DX003 (ip), vehicle: Klucel (hydroxypropylcellulose) (HPC)) 3 of 6; (dose: 200.0 mg/kg/injection, schedule: Q04DX003 (ip), vehicle: Klucel (hydroxypropylcellulose) (HPC)) 0 of 6. Further, under setting [6], the survivor count is 0 of 6.

`Cc1nc2ccc(O)cc2cc1CBr`: the survivor count is given as 1 of 6 (dose: 50.0 mg/kg/injection, schedule: Q01DX009 (ip), vehicle: saline); 0 of 6 (dose: 100.0 mg/kg/injection, schedule: Q01DX009 (ip), vehicle: saline); 1 of 6 (dose: 100.0 mg/kg/injection, schedule: Q04DX003 (ip), vehicle: saline); 0 of 6 (dose: 200.0 mg/kg/injection, schedule: Q04DX003 (ip), vehicle: saline); 0 of 6 (dose: 400.0 mg/kg/injection, schedule: Q04DX003 (ip), vehicle: saline).

In the case of `Cc1cc(C(O)c2ccccn2)c2ccccc2n1` (stereo not drawn), the survivor count is listed as 3 of 6 under setting [7] and 1 of 6 (dose: 400.0 mg/kg/injection, schedule: Q01DX001 (ip), vehicle: Klucel (hydroxypropylcellulose) (HPC)).

On to `CC12CC3CC(C)(C1)CC(SCCN)(C3)C2`, for which the survivor count under setting [5] is 2 of 3.

Take `C[N+](C)(C)/N=C1\CC2CCC1C2` (stereo not drawn): under setting [3], the survivor count is given as 0 of 4.

As for `NC(=S)N/N=C\c1ccc(/C=N/NC(N)=S)cc1`, under setting [3], the survivor count is recorded as 3 of 4.

Take `O=C1C2C3SC(c4nc5ccccc5cc43)C2C(=O)N1c1ccccc1` (stereo not drawn): the survivor count is 3 of 3 (dose: 100.0 mg/kg/injection, schedule: Q01DX001 (ip), vehicle: saline with Tween-80) and 3 of 3 (dose: 200.0 mg/kg/injection, schedule: Q01DX001 (ip), vehicle: saline with Tween-80).

`COc1ccc(Cl)cc1NC(=O)Nc1nccs1`: the survivor count under setting [8] is reported as 1 of 6.

Regarding `CS(=O)(=O)Nc1ccc(Nc2c3ccccc3nc3ccccc23)cc1`, the T/C reads like this: (dose: 10.0 mg/kg/injection, schedule: Q01DX009 (ip), vehicle: saline) 133 % of control; (dose: 40.0 mg/kg/injection, schedule: Q01DX009 (sc), vehicle: saline) 130 % of control; (dose: 80.0 mg/kg/injection, schedule: Q01DX009 (sc), vehicle: saline) 126 % of control; (dose: 177.0 mg/kg/injection, schedule: Q01DX001 (ip), vehicle: carboxymethylcellulose (CMC)) 145 % of control; (dose: 365.0 mg/kg/injection, schedule: Q04DX003 (ip), vehicle: Klucel (hydroxypropylcellulose) (HPC)) 136 % of control; under setting [1], 137 % of control. Further, the survivor count by setting is: (dose: 78.0 mg/kg/injection, schedule: Q01DX009 (ip), vehicle: carboxymethylcellulose (CMC)) 0 of 6; (dose: 80.0 mg/kg/injection, schedule: Q01DX009 (ip), vehicle: saline) 6 of 6; (dose: 160.0 mg/kg/injection, schedule: Q01DX009 (ip), vehicle: saline) 6 of 6; (dose: 264.0 mg/kg/injection, schedule: Q01DX009 (ip), vehicle: carboxymethylcellulose (CMC)) 6 of 6; under setting [2], 6 of 6.

For the compound `Oc1ccccc1CNCc1ccccc1O`, the survivor count (dose: 300.0 mg/kg/injection, schedule: Q01DX001 (ip), vehicle: saline) is recorded as 0 of 6.

For the compound `O=C(c1ccccc1)C1C(c2ccccc2)N1Cc1ccccc1` (stereo not drawn), the survivor count is on record as 6 of 6 under setting [7], 0 of 6 under setting [8] and 3 of 6 under setting [6].

As to `ClC(CN1CCCCC1)C(Cl)c1ccccc1` (stereo not drawn), the survivor count (dose: 200.0 mg/kg/injection, schedule: Q01DX009 (ip), vehicle: saline) is on record as 5 of 6.

Consider `NC(N)=N/N=C/c1ccccn1`, for which the survivor count is 0 of 6 (dose: 240.0 mg/kg/injection, schedule: Q01DX Z (ip), vehicle: saline) and 0 of 6 (dose: 480.0 mg/kg/injection, schedule: Q01DX Z (ip), vehicle: saline).

Turning to `CCN(CC)CCN1C(=O)CN=C(c2ccccn2)c2cc(Cl)ccc21`, the survivor count under setting [4] is recorded as 1 of 6.

For the compound `N#Cc1cc[n+](Cc2ccc([N+](=O)[O-])cc2)cc1`, the survivor count under setting [3] was 0 of 6.

`CC(NC(=O)OCc1ccccc1)C(=O)NCCC(N)=O` (stereo not drawn): the survivor count (dose: 400.0 mg/kg/injection, schedule: Q01DX009 (ip), vehicle: saline with Tween-80) is reported as 6 of 6.
